Results published in US20120283182A1 (GEORGIA REGENTS RESEARCH INSTITUTE, published 2012).

What was measured:
Assay in all cases: co-IP with anti-dF1Fo antisera from NCM mitochondria after 100 nM 4-β PMA; Western blot
[1] = target: T1, αPKC (rat, UniProt P05696 2-672)
T1 construct: also called aPKC; α PKC isozyme

[2] = target: T2, ξPKC (rat, UniProt P09217 1-592)
T2 construct: The Greek letter is printed as ξ, z or dropped altogether in places; also called zPKC; ξ PKC isozyme
T2 sequence (looked up): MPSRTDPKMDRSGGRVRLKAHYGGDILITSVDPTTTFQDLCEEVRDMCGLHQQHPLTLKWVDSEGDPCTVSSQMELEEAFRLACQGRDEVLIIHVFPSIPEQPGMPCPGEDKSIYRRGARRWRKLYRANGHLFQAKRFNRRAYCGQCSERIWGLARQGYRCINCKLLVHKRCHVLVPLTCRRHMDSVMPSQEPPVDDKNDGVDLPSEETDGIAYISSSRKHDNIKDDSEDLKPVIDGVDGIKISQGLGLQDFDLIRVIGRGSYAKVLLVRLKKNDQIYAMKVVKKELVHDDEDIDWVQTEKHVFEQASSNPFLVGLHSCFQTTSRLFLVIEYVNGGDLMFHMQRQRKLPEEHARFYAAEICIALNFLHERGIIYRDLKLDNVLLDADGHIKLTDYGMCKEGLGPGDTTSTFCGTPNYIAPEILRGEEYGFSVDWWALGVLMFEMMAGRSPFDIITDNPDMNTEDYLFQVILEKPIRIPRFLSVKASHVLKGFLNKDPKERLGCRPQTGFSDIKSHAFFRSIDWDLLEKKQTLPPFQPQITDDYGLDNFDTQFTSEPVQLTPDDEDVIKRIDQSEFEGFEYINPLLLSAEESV

[3] = target: T3, εPKC (rat, UniProt P09216 1-737)
T3 construct: also called ePKC; ε PKC isozyme
T3 sequence (looked up): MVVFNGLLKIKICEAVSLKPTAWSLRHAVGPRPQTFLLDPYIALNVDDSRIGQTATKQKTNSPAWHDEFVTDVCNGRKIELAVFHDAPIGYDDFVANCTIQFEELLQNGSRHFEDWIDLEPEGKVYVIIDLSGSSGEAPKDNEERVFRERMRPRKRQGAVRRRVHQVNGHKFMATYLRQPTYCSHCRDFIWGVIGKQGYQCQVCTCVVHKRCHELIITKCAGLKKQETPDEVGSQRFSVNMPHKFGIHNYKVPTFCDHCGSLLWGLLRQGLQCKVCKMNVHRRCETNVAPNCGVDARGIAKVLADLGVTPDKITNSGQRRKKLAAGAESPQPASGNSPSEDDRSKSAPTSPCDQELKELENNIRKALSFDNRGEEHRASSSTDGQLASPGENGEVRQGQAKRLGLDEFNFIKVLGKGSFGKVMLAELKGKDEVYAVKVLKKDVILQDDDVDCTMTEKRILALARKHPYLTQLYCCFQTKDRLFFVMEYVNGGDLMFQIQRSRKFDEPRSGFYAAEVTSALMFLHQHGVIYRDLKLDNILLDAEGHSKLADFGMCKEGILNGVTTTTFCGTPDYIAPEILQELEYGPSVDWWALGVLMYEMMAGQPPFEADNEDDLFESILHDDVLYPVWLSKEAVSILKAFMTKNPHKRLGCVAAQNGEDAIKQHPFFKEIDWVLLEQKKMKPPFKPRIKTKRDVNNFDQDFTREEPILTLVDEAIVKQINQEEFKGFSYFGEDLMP

binding result [1]: no binding | binding result [2]: no binding | binding result [3]: no binding
B1: 'd' subunit of F1Fo ATP synthase (dF1Fo) (other)
chain: AGRKLALKTIDWVSFVEIMPQNQKAIGNALKSWNETFHTRLASLSEKPPAIDWAYYRANVDKPGLVDDFKNKYNALKIPVPEDKYTALVDAEEKEDVKNCAQFVTGSQARVREYEKQLEKIKNMIPFDQMTIDDLNEVFPETKLDKRKYPYWPHQPIENL
notes: In overlay assays it stood as an SDS-PAGE-resolved subunit of purified rat heart F1Fo ATPase on nitrocellulose; in co-IP it was pulled down from solubilised mitochondria with anti-dF1Fo antisera; also called δF1Fo; d subunit of F1Fo ATPase
